Test results as given in publication PMC12660843.
Changes are numbered by the printed parent chain. Names and notes keep the numbering of the source. Results are given in words; binding and its absence hold for the method and conditions named.

Columns and labels:
insulin = assay: ELISA; polyreactivity ELISA: KLH 5 ug/mL, insulin 1 ug/mL, BSA 1% (w/v), streptavidin 10 ug/mL added to wells; IgG at 100 nM; both purified
[1] = target: keyhole limpet hemocyanin (keyhole limpet); assay: as above

B1: hSC44.20.N32Y^L IgG (antibody, V domains shown)
VH: EVQLVESGGGLVQPGGSLRLSCTASGFSIDSYGFSWVRQAPGKGLEHIGYLTAGGRAFYASWAKSRSTITRNTNENTVTLKMNSLRAEDTAVYYCAKLGTGSRFAIWGQGTLVTVSS
VL: DIQLTQSPSSLSASVGDRVTITCRASQSVWRNKYVAWYQQKPGKAPKRLIYAIASLYSGVPSRFSGSGSGTDFTLTISSLQPEDFATYYCVGHYGSENDAYYAFGQGTKVEIK
binding (insulin): no binding (tested: IgG at 100 nM) | binding [1]: no binding (tested: IgG at 100 nM)

B2: hSC44.20.N32F^L IgG (antibody, V domains shown)
VH: B1 VH
VL: B1 VL with Y34F
binding (insulin): no binding (tested: IgG at 100 nM) | binding [1]: no binding (tested: IgG at 100 nM)
